Experimental data reported in patent US20250257069A1, “JAK INHIBITOR ANALOGS, FORMULATIONS, AND USES THEREOF” (THE REGENTS OF THE UNIVERSITY OF MICHIGAN, priority 2022, published 2025).
pIC50: −log10 of the molar value.

Tests used:
HEL 92.1.7 cells = experiment: Anti-proliferative assay in HEL cells (CellTiter 96 Aqueous); format: cell-based; conditions: Homo sapiens, 72 h, 3 days
Description: (§1) Cell Culture and anti-proliferative assay. Human cell lines HEL 92.1.7 and SET-2 were obtained from American Type Culture Collection (ATCC) and Leibniz Institute DSMZ-German Collection of Microorganisms and Cell Cultures GmbH, respectively. HEL and SET-2 cells were cultured in RMPI 1640 medium (Life Technologies Corporation, New York, USA) supplemented with 10% or 20% fetal bovine serum (FBS, Life Technologies Corporation, New York, USA), respectively. Cells were incubated at 37° C. in a humidified atmosphere of 5% CO2. Cells were seeded into 96-well culture plates at the density of approximately 8000 cells per well and treated with various concentrations of compounds for 3 days in final volumes of 200 μL. Upon end point, cells were treated using CellTiter 96 Aqueous Assay Reagents (Promega Corporation, Madison, USA) according to the provider's instruction. Briefly, MITS and PMS solution were thawed and mixed (20:1, v/v) before use and pipet appropriate amount of the mixed solution into each well of the 96 well assay plates. The plates were incubated for 1-4 hours at 37° C. in a humidified atmosphere of 5% CO2. The absorbance at 490 nm was recorded using CYTATION 5 imaging reader (BioTek, VT, USA). IC50 values were calculated using percentage of growth versus untreated control.

SET-2 cells = experiment: Anti-proliferative assay in SET-2 cells (CellTiter 96 Aqueous); format: cell-based; conditions: Homo sapiens, 72 h, 3 days
Description: as §1

`CCS(=O)(=O)N1CC(CC#N)(n2cc(-c3ncnc4[nH]ccc34)cn2)C1` [Baricitinib] gave a pIC50 (HEL 92.1.7 cells) of 6.47 and a pIC50 (SET-2 cells) of ~8.11.
